The target of test [1] is Xenopus Nedd4 tagged with a Myc tag (1M-Nedd4) (Xenopus) (UniProt O42573). Nature of the test: co-IP; both co-transfected in HEK293T cells, treated with 25 uM LnLL (proteasome inhibitor) for 16 hr; lysed in IP buffer (50 mM HEPES pH 7.4, 50 mM NaCl, 1 mM EDTA, 1 mM EGTA, 1% Triton X-100) with 50 uM LnLL; IP with anti-Myc 9E10 or anti-GFP or control mouse IgG, Protein G-Sepharose; western blot with anti-Myc and anti-GFP. For orientation: A western blot detects proteins with antibodies after separation by electrophoresis.

Chains of the proteins cited; added tags and fusions are not shown. Lines headed by an entry give the natural chain unless they say otherwise; changes in a name come on top. A line that says so, or that is headed by a name, gives the form on record, which may keep a tag or linker.
Xenopus Nedd4 tagged with a Myc tag (1M-Nedd4) (O42573, form named): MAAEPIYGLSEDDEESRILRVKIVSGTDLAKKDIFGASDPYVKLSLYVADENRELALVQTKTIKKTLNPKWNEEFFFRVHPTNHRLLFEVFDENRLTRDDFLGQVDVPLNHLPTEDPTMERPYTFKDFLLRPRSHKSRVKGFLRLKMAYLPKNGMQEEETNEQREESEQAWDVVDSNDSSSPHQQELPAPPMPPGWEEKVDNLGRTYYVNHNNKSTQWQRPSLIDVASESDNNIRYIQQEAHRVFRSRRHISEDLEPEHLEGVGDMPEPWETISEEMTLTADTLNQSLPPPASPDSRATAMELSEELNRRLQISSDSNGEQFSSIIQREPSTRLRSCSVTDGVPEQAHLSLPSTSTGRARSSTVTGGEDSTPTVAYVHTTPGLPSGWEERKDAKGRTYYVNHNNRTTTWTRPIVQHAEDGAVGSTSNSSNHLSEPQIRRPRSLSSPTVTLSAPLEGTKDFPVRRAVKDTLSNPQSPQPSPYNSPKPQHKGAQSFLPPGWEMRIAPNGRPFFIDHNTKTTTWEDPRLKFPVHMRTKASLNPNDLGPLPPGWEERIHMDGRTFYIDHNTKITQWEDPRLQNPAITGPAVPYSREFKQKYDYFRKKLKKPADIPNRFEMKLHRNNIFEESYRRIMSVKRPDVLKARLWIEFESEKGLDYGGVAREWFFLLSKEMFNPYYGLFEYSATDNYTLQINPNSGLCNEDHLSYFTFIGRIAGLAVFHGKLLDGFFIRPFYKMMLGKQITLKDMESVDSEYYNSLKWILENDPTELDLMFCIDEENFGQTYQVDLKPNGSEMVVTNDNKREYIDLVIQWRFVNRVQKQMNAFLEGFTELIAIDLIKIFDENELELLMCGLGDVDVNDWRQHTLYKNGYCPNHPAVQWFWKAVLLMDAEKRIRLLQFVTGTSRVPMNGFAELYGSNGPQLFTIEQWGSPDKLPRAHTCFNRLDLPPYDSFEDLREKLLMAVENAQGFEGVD

Test [2] addresses Xenopus PTEN tagged with EGFP (GFP-PTEN) (Xenopus) (UniProt Q9PUT6). The description is as above.

From publication PMC2862300 come the findings set out here.

No constants are given. Whether binding was seen depends on the method and setting. Binding seen in cells or lysates may run through a third protein. Some results given as binding are weak or reduced against the parent protein; the word gives no strength.

In the case of “Xenopus PTEN tagged with EGFP (GFP-PTEN) (from UniProt Q9PUT6 1-402) (enzyme)”, the binding entry in test [1] was “binds”.

In the case of “Xenopus Nedd4 tagged with a Myc tag (1M-Nedd4) (from UniProt O42573 1-971) (enzyme)”, the binding entry in test [2] is “binds”.
